Reference: PubChem BioAssay AID1259259 (Sanger Institute, 2017)
The deposit covers 794 reagents; this is a random part of them. Of all reagents, 9 (1.1%) were called active. 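Calls rest on knock-down alone, not drug synergy; viability values seem capped at 1.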 Not all columns of the deposit are shown. No sequences are given here. Not stated in the record: the amount of reagent, the time to read-out.

Aim: 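Synthetic lethal kinase partners of anchor drugs in colorectal cancer cells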 (primary screen)
Cells: SW1463 human colorectal cancer cells
Knock-down reagent: siRNA pool against human genes
Challenge: DMSO vehicle, or one anchor drug: BYL719 at 1 µM, cetuximab at 5 µg/ml, or trametinib at 10 nM
Measured: 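Viability as fraction of control pool 2 (non-targeting), replicate mean; knock-down robust z-score without any drug; synergy score averaged for each anchor drug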
Direction: robust z-score, knock-down alone: higher = more viable cells after knock-down
Call rule: 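Knock-down called essential when its robust z-score without drug falls below -3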
Meaning of the calls: active = essential: viability loss from knock-down alone; inactive = no change from knock-down alone

BMPR1A | robust z-score, knock-down alone = 1.07; Outcome = inactive
EPHA2 | robust z-score, knock-down alone = -0.308; Outcome = inactive
NTRK3 | robust z-score, knock-down alone = -0.137; Outcome = inactive
MGA | robust z-score, knock-down alone = 1.13; Outcome = inactive
PDGFRB | robust z-score, knock-down alone = -3.11; Outcome = active
TTBK1 | robust z-score, knock-down alone = 0.145; Outcome = inactive
MAP3K6 | robust z-score, knock-down alone = -1.33; Outcome = inactive
GALK2 | robust z-score, knock-down alone = -0.232; Outcome = inactive
NUP98 | robust z-score, knock-down alone = -0.926; Outcome = inactive
PHKB | robust z-score, knock-down alone = 1.13; Outcome = inactive
POLR2B | robust z-score, knock-down alone = -2.95; Outcome = inactive
MAP4K3 | robust z-score, knock-down alone = -0.408; Outcome = inactive
OBSCN | robust z-score, knock-down alone = 0.209; Outcome = inactive
CDKN1B | robust z-score, knock-down alone = -0.595; Outcome = inactive
CTNNB1 | robust z-score, knock-down alone = -2.71; Outcome = inactive
STK17A | robust z-score, knock-down alone = 0.216; Outcome = inactive
MAP2K5 | robust z-score, knock-down alone = 1.13; Outcome = inactive
NEK1 | robust z-score, knock-down alone = 1.13; Outcome = inactive
MAP3K1 | robust z-score, knock-down alone = 0.184; Outcome = inactive
VRK2 | robust z-score, knock-down alone = -1.57; Outcome = inactive
FGFR4 | robust z-score, knock-down alone = 0.855; Outcome = inactive
DYRK2 | robust z-score, knock-down alone = 1.13; Outcome = inactive
PKIB | robust z-score, knock-down alone = -0.286; Outcome = inactive
STK32A | robust z-score, knock-down alone = 1.13; Outcome = inactive
PCK1 | robust z-score, knock-down alone = -0.0256; Outcome = inactive
PFKP | robust z-score, knock-down alone = 1.13; Outcome = inactive
FN3KRP | robust z-score, knock-down alone = -0.00147; Outcome = inactive
LIMK2 | robust z-score, knock-down alone = 1.13; Outcome = inactive
